# Experimental data published in the supplement of paper PMC11732987, “Enantioselective OTUD7B fragment discovery through chemoproteomics screening and high-throughput optimisation” (Communications Chemistry, 2025).
# By UniProt entry, the sequences of proteins in these tests, tags left out. Where a name states a change or a piece, a line headed by the entry shows the natural chain unless it says otherwise. Residues count along the entry.
# UniProt P10398: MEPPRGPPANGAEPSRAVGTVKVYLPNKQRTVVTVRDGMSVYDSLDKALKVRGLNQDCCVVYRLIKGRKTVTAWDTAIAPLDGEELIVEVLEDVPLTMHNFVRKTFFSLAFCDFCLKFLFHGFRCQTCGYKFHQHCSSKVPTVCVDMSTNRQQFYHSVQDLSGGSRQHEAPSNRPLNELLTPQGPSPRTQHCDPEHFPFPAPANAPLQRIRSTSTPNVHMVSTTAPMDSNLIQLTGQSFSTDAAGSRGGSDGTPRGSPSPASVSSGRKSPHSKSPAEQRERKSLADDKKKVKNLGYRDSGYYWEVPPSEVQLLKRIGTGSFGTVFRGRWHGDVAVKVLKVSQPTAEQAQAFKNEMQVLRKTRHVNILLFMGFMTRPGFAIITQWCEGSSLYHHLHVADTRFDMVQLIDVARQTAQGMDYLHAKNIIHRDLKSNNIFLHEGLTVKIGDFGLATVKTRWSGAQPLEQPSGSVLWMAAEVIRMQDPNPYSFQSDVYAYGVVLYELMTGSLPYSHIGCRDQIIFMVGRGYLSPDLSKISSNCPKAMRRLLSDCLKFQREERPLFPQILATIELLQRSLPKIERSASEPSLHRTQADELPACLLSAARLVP
# UniProt Q15052: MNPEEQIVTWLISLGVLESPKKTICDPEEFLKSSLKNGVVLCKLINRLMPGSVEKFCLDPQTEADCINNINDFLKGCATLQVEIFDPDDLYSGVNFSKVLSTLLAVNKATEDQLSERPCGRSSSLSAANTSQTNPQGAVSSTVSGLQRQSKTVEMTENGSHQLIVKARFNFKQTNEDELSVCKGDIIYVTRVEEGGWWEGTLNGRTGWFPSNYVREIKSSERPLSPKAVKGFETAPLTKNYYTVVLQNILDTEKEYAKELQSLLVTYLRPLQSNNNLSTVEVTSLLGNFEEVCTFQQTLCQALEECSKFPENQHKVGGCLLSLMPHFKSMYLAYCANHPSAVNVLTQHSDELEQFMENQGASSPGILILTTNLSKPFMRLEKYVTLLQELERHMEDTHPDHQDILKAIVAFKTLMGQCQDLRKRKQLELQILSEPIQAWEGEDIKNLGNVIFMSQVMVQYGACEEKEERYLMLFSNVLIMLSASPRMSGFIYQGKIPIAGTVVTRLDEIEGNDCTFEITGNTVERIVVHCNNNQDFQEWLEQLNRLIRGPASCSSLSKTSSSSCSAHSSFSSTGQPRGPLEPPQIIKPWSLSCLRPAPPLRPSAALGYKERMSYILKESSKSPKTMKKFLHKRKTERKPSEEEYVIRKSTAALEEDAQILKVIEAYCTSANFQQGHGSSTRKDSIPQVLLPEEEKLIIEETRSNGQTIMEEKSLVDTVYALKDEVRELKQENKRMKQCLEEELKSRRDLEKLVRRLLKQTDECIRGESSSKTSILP
# UniProt Q86XL3: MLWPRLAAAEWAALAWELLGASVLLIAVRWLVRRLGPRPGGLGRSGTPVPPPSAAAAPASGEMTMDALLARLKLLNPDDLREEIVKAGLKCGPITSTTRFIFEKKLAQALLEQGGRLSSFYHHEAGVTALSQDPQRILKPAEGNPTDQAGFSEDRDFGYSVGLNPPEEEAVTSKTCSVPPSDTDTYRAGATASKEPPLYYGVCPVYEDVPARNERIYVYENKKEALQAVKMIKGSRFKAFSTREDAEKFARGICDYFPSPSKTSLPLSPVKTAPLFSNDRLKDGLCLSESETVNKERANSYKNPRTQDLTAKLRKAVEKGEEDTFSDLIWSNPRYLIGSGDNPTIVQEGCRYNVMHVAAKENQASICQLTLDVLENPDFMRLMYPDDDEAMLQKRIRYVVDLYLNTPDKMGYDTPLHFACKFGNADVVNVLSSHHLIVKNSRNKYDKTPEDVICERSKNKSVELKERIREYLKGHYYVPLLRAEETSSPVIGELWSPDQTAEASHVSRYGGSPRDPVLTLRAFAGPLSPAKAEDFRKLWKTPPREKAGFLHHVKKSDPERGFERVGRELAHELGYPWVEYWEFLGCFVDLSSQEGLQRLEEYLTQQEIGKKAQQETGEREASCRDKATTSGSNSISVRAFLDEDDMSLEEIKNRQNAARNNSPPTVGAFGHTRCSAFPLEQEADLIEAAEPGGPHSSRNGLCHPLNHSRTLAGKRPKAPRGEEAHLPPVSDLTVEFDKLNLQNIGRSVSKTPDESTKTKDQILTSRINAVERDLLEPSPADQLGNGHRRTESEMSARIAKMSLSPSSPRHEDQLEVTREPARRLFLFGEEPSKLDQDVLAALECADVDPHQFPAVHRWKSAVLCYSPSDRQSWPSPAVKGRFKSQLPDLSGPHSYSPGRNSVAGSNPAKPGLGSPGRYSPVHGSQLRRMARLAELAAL
# UniProt O95376: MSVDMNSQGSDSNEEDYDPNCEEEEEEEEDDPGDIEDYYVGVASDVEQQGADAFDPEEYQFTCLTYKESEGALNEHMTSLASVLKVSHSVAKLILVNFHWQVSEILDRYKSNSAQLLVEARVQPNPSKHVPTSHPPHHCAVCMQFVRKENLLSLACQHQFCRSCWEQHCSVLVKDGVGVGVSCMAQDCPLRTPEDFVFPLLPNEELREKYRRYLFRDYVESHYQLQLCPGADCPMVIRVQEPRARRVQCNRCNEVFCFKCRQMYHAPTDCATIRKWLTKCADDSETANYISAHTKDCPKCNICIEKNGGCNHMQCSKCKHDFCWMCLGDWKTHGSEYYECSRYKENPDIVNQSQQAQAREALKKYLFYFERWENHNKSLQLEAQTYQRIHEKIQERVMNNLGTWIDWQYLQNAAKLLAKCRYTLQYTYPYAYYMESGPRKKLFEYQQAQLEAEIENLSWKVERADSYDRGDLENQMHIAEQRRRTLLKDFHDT
# UniProt Q4LE39: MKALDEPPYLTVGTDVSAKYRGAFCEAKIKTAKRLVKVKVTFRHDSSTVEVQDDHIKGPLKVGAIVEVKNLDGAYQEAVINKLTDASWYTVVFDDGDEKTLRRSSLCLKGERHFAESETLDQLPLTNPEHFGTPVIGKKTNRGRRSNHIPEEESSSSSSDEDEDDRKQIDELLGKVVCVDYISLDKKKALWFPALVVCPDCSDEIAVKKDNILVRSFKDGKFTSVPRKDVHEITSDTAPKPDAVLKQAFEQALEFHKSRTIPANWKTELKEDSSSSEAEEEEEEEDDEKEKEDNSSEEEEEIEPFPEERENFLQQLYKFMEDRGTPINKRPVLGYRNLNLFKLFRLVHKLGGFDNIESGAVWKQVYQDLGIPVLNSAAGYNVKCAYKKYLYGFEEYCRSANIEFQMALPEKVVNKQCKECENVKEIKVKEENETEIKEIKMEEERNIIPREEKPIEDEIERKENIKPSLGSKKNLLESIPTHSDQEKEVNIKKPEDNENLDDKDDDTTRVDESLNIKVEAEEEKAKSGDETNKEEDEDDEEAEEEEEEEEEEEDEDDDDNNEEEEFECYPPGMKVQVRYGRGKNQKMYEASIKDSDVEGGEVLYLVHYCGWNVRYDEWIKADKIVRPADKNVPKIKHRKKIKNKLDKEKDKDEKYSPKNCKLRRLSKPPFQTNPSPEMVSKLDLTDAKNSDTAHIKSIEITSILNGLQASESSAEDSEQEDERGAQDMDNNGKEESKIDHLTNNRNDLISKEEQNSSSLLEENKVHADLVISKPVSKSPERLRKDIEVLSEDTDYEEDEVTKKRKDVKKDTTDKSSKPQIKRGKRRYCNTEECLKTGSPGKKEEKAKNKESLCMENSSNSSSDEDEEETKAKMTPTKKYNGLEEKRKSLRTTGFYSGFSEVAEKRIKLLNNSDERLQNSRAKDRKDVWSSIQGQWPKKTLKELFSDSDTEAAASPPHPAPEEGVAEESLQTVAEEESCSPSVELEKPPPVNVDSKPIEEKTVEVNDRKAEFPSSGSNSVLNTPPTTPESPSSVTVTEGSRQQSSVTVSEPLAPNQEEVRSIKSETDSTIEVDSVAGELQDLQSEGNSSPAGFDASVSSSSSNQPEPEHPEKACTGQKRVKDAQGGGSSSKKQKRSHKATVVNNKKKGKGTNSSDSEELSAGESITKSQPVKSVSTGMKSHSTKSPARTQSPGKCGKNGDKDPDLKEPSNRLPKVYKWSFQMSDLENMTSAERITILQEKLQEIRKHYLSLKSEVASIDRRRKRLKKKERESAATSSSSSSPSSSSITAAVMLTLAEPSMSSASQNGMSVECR
# UniProt Q7Z3E5, 354-374: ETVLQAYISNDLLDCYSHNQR
# UniProt O95782: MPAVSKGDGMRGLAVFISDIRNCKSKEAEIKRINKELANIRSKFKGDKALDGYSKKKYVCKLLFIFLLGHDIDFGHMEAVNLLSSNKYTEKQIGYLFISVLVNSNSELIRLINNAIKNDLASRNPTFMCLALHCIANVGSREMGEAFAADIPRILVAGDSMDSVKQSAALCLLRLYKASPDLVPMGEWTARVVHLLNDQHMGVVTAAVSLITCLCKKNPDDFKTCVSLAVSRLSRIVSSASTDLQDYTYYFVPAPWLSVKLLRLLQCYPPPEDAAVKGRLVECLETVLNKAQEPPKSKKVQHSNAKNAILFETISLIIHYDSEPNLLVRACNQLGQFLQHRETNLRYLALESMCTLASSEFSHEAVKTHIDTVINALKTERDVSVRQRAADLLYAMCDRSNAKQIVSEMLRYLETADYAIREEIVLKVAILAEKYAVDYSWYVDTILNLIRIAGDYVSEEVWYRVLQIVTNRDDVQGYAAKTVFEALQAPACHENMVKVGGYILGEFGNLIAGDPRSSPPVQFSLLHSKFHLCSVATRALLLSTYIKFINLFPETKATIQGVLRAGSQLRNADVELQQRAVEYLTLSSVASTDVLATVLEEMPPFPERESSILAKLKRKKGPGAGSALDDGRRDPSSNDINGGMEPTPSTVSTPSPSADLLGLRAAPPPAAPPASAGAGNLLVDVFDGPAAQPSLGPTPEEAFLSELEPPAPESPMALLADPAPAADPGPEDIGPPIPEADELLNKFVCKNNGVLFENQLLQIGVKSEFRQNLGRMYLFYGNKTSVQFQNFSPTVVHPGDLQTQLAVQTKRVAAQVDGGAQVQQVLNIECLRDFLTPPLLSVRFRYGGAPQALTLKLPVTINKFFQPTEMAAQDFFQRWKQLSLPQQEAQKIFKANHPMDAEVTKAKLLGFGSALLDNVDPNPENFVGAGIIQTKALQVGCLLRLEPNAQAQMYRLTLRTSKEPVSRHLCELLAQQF
# UniProt Q6ZW76: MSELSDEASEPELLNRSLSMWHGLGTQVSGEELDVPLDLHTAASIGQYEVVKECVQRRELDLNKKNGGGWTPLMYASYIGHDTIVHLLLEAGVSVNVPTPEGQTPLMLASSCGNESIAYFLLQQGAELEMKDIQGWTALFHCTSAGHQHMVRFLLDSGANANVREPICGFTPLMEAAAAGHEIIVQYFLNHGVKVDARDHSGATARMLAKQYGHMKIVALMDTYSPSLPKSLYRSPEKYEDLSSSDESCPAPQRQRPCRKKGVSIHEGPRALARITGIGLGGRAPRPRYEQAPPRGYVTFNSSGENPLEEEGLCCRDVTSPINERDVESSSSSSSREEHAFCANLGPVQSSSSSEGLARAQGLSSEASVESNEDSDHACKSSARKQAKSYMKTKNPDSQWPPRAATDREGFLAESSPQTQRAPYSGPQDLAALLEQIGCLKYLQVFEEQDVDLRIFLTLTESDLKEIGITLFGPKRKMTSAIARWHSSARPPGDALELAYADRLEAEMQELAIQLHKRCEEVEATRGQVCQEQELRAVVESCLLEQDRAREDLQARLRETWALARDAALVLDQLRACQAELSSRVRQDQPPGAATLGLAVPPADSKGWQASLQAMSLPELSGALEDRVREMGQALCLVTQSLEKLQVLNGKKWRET
# UniProt A7KAX9, 1965-1985: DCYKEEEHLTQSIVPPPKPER
# UniProt Q3SXY8, 132-151: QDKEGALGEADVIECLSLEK
# UniProt Q9NUS5: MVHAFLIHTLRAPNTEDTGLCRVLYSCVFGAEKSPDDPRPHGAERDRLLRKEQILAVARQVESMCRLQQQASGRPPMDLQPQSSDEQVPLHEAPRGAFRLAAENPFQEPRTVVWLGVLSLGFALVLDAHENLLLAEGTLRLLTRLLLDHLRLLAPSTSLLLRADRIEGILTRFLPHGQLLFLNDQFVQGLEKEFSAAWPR
# UniProt P50995: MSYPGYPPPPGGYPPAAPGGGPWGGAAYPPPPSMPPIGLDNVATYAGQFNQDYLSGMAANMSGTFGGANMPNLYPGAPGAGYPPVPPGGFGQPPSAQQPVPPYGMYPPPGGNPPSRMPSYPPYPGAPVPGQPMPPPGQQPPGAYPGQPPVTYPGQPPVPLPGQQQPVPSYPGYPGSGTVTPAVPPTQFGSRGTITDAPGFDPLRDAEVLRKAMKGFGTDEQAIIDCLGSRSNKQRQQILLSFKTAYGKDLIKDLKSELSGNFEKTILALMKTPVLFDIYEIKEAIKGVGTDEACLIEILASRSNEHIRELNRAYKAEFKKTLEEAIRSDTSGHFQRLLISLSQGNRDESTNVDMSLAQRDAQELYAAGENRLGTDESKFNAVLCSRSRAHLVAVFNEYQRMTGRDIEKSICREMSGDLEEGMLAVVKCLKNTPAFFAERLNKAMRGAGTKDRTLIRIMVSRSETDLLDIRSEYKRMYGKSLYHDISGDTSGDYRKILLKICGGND
# This is one part of the list. The data scatter; read single values as rough.
# Legend:
# [1] = compound: ClCC(=O)N[C@@H]1CCCc2ccccc12; assay: log2 mean competition ratio of IA-DTB cysteine labelling (DMSO/compound) (log2 ratio); higher = stronger cysteine engagement by compound; conditions: treatment time: 4 h, cell line lysate: HEK293T
# Protocol: (§1)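 IA-DTB competitive cysteine chemoproteomics in HEK293T RIPA lysate. Lysates were treated with compound 29 or 30 at 50 or 200 µM for 4 h, then IA-DTB (500 µM, 1 h), trypsin-digested, NeutrAvidin-enriched and analysed by diaPASEF. Competition ratio = intensity DMSO / intensity compound (n=4 treated, n=64 DMSO); binding: mean log2 CR ≥ 1 and p ≤ 0.05 plus QC filters. Target is the cysteine site.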
# [2] = compound: ClCC(=O)N[C@H]1CCCc2ccccc12; assay: as above; conditions: treatment time: 4 h, cell line lysate: HEK293T
# Protocol: as §1
Target,log2 mean competition ratio ([1]; 50 µM),log2 mean competition ratio ([1]; 200 µM),log2 mean competition ratio ([2]; 50 µM),log2 mean competition ratio ([2]; 200 µM)
ANKRD16 C99 (UniProt Q6P6B7),0.0641,-0.0259,–,–
ARAF C144 (UniProt P10398),0.174,0.026,–,–
ARHGAP29 C518 (UniProt Q52LW3),0.00785,-0.278,–,–
ARMC8 C661,0.0359,0.344,–,–
ANKRD54 C265 (UniProt Q6NXT1),-0.189,0.306,–,–
ARMC10 C59 (UniProt Q8N2F6),-0.282,0.185,–,–
ARFGEF1 C1729 (UniProt Q9Y6D6),0.00144,0.15,–,–
ARHGEF40 C1282 (UniProt Q8TER5),0.305,-0.0792,–,–
ARHGEF6 C738 (UniProt Q15052),-0.0155,0.384,–,–
ARL6IP4 C59 (UniProt Q66PJ3),-0.104,0.425,–,–
ANKLE2 C454 (UniProt Q86XL3),-0.193,-0.031,–,–
ARIH2 C270 (UniProt O95376),-0.316,0.194,–,–
ANKRD39 C107 (UniProt Q53RE8),0.631,0.245,–,–
ARMCX3 C208 (UniProt Q9UH62),-0.207,0.034,-0.11,-0.0123
ARHGAP44 C367,-0.0674,-0.347,-0.328,0.0302
ANP32B C27 (UniProt Q92688),-0.326,-0.133,0.262,0.117
ANP32A C123 (UniProt P39687),0.0645,-0.068,-0.126,0.00535
ARF5 C62 (UniProt P84085),0.302,-0.276,0.344,-0.179
ANKRD11 C2359 (UniProt Q6UB99),0.0313,-0.472,0.217,0.0282
ARID4B C178 (UniProt Q4LE39),-0.158,0.109,-0.369,-0.145
ANKRD11 C818 (UniProt Q6UB99),-0.0951,0.0816,-0.209,-0.142
ARHGEF12 C784 (UniProt Q9NZN5),-0.184,0.0822,-0.0934,0.063
AP2A2 C532 (UniProt O94973),0.227,-0.299,0.486,-0.427
APPL2 C412 (UniProt Q8NEU8),-0.081,-0.0668,-0.0826,-0.0216

# Full records as entered above. Values in the order: log2 mean competition ratio ([1]; 50 µM) | log2 mean competition ratio ([1]; 200 µM) | log2 mean competition ratio ([2]; 50 µM) | log2 mean competition ratio ([2]; 200 µM)
# ARL6IP4 C59 (UniProt Q66PJ3) in the list: -0.104 | 0.425 | – | –
# ARMCX3 C208 (UniProt Q9UH62) in the list: -0.207 | 0.034 | -0.11 | -0.0123

# More results follow.

Target,log2 mean competition ratio ([1]; 50 µM),log2 mean competition ratio ([1]; 200 µM),log2 mean competition ratio ([2]; 50 µM),log2 mean competition ratio ([2]; 200 µM)
ARMC9 C368 (UniProt Q7Z3E5),0.0377,0.102,0.177,-0.0807
ARFGEF2 C1617 (UniProt Q9Y6D5),-0.0262,0.13,-0.712,-0.15
AP2A1 C492 (UniProt O95782),-0.0049,-0.0283,-0.203,-0.179
ARIH1 C327 (UniProt Q9Y4X5),-0.0185,-0.119,0.384,-0.21
ANKS3 C530 (UniProt Q6ZW76),-0.125,-0.114,-0.391,-0.078
ARF4 C62 (UniProt P18085),0.151,0.0297,0.551,0.0351
ARHGAP32 C1966 (UniProt A7KAX9),0.176,0.214,-0.751,-0.0781
ARL13B C146 (UniProt Q3SXY8),-0.236,0.549,-0.0342,0.123
ARCN1 C286 (UniProt P48444),-0.148,-0.0577,-0.0716,-0.105
ANKRD40 C358 (UniProt Q6AI12),-0.0745,0.223,-0.000661,0.159
ANKRD26 C735 (UniProt Q9UPS8),0.0617,0.0705,-0.00782,-0.108
ANKRD27 C277 (UniProt Q96NW4),-0.127,-0.13,-0.0443,0.151
ANKS1A C651 (UniProt Q92625),-0.0113,0.0293,0.214,0.0359
AP5S1 C21 (UniProt Q9NUS5),-0.0556,0.0572,-0.233,-0.07
APC C520 (UniProt P25054),-0.0959,-0.105,-0.403,0.13
APP C174 (UniProt P05067),0.346,-0.302,0.857,0.187
AP1G1 C106,-0.156,0.0772,-0.601,-0.0142
APC C947 (UniProt P25054),-0.0151,-0.134,0.332,0.177
ASCC3 C310 (UniProt Q8N3C0),-0.0099,0.269,0.0529,0.28
ANXA11 C226 (UniProt P50995),-0.475,0.0156,-0.345,0.0716
ANO6 C261 (UniProt Q4KMQ2),-0.612,0.753,-0.552,0.515
AP3D1 C39 (UniProt O14617),0.104,-0.114,-0.633,-0.408
ANLN C469 (UniProt Q9NQW6),0.206,-0.318,0.425,-0.201
